The test system of the test is P388 leukemia ip, CD2F1 mice, survival T/C. Briefly: NCI In Vivo Anticancer Drug Screen. Data for tumor model P388 Leukemia (intraperitoneal) in CD2F1 (CDF1) mice. The conditions noted are these: T/C endpoint: median survival time, schedule: Q01DX009 (ip), higher T/C = longer survival.
The mark [1] stands for this setting: dose: 12.5 mg/kg/injection, vehicle: saline with Tween-80.
Where [2] appears, read: dose: 25.0 mg/kg/injection, vehicle: saline with Tween-80.
Where [3] appears, read: dose: 200.0 mg/kg/injection, vehicle: saline with Tween-80.
[4] abbreviates: dose: 200.0 mg/kg/injection, vehicle: other.
[5] abbreviates: dose: 400.0 mg/kg/injection, vehicle: other.

The list shows only some results of the screen, not a fair sample: it gathers tests that were run many times, whatever their T/C, doses with no T/C, and many T/C values between a quarter and a half above the control. Other doses and runs of a compound stand elsewhere. T/C gives the treated animals as a percentage of the vehicle group. Some entries give survivors of the animals treated and no T/C: the source holds a T/C of zero for them, seemingly a mark for toxic or unscored doses. Some doses without a T/C left all or most animals alive at the check, yet need not have been tolerated: survival well below the control is almost never listed, so the zero probably covers shortened survival too. Counts of survivors are from the toxicity check (mostly the fifth day) where no day follows; animals may have died later. Schedules are NCI's codes, read here as Q, the interval in days (D) or hours (H), X, the number of doses. Some entries hold several experiments; their values stand side by side, smallest first. Where survival is the endpoint, this PubChem deposit counts one and a half times the control or more as active, and values a quarter to a half above the control carry no call in these data; other NCI protocols may use other cut-offs.

Turning to `O=C(O)c1ccccc1C(=O)c1ccc(CBr)cc1`, the survivor count under setting [1] is given as 5 of 6 and the survivor count under setting [2] is given as 5 of 6.

`Cc1cccc(N)n1`: the survivor count (dose: 50.0 mg/kg/injection, vehicle: saline) is 0 of 6; the survivor count (dose: 100.0 mg/kg/injection, vehicle: saline) is 0 of 6; the survivor count (dose: 200.0 mg/kg/injection, vehicle: saline) is reported as 0 of 6.

For the molecule `O=C(/C=C/c1ccc(OCc2ccccc2)cc1)c1ccccc1Cl`, the survivor count by setting is: under setting [3], 6 of 6; (dose: 400.0 mg/kg/injection, vehicle: saline with Tween-80) 6 of 6.

With `C/C=C(\C)c1cc(=O)c2c(C)cc3c(c2o1)C(=O)c1c(O)c(C2CC(C)(N(C)C)C(O)C(C)O2)cc(C2CC(N(C)C)C(O)C(C)O2)c1C3=O` (stereo not given), the T/C is 144 % of control (dose: 0.15 mg/kg/injection, vehicle: saline); 133 % of control (dose: 0.5 mg/kg/injection, vehicle: Klucel (hydroxypropylcellulose) (HPC)); 136 % of control (dose: 1.0 mg/kg/injection, vehicle: Klucel (hydroxypropylcellulose) (HPC)); 144 % of control (dose: 1.25 mg/kg/injection, vehicle: saline); 136 % of control (dose: 3.13 mg/kg/injection, vehicle: saline with Tween-80); 133 % of control (dose: 4.0 mg/kg/injection, vehicle: Klucel (hydroxypropylcellulose) (HPC)). Besides, the survivor count by setting is: (dose: 0.62 mg/kg/injection, vehicle: saline) 5 of 6; (dose: 2.5 mg/kg/injection, vehicle: saline) 6 of 6; (dose: 4.0 mg/kg/injection, vehicle: saline) 6 of 6; under setting [1], 5 of 6.

For `CS(=O)(=O)OCCN(CCOS(C)(=O)=O)c1ccc(N=Nc2ccccc2)cc1`, the T/C is 144 and 147 % of control (dose: 6.25 mg/kg/injection, vehicle: saline with Tween-80); 141 % of control under setting [2]. Besides, the survivor count is listed as 5 of 6 (dose: 50.0 mg/kg/injection, vehicle: saline with Tween-80); 6 of 6 (dose: 100.0 mg/kg/injection, vehicle: saline with Tween-80); 4 of 6 under setting [3].

Turning to `O=c1oc(-c2cccc(I)c2)ns1`, the survivor count (dose: 400.0 mg/kg/injection, vehicle: Klucel (hydroxypropylcellulose) (HPC)) is listed as 4 of 6.

For `CCn1c(=O)c2[nH]c(Cl)nc2n(CCCl)c1=O`, the T/C (dose: 64.0 mg/kg/injection, vehicle: Klucel (hydroxypropylcellulose) (HPC)) is 125 % of control. Further, the survivor count (dose: 256.0 mg/kg/injection, vehicle: Klucel (hydroxypropylcellulose) (HPC)) is 0 of 6.

With `COc1cccc(C=O)c1OS(=O)(=O)c1ccc(C)cc1`, the survivor count is recorded as 2 of 6 under setting [4] and 2 of 6 under setting [5].

In the case of `CCNCCNc1ccc(NCCNCC)c2c1C(=O)c1ccccc1C2=O`, the T/C (dose: 2.0 mg/kg/injection, vehicle: acid diluted with saline) is 148 % of control; the T/C (dose: 3.13 mg/kg/injection, vehicle: other) was 142 % of control; the T/C (dose: 6.25 mg/kg/injection, vehicle: other) was 149 % of control. The survivor count reads like this: (dose: 32.0 mg/kg/injection, vehicle: acid diluted with saline) 7 of 8; (dose: 50.0 mg/kg/injection, vehicle: other) 0 of 6 and 2 of 6; (dose: 100.0 mg/kg/injection, vehicle: other) 0 of 6; under setting [4], 0 of 6; under setting [5], 0 of 6.

The values above are taken from PubChem BioAssay AID330 (DTP/NCI, 2004).
